From PubChem BioAssay AID449745 (Broad Institute, 2010)
This is one part of the list. The source made no clear call on entries shown without one.

Sequences of proteins named here, by UniProt entry; tags and fusion partners are left off. A change or cut given only in a name is not applied to a line headed by its entry.
UniProt Q9XUB2: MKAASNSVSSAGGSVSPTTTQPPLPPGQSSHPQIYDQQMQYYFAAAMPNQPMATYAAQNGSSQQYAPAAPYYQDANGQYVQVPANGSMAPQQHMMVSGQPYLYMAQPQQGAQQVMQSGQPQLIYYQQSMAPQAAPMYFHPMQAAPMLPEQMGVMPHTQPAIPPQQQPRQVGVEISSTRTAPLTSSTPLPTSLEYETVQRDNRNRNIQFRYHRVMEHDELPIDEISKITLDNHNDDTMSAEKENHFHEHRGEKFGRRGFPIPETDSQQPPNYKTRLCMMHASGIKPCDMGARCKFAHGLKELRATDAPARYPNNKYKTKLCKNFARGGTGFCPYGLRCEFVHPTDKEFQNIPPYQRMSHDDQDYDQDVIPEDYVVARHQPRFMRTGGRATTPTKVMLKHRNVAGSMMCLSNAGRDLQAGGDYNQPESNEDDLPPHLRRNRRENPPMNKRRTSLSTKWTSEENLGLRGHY

Target: Zinc finger protein mex-5 (Caenorhabditis elegans) (UniProt Q9XUB2)
Assay: MEX-5 RNA-binding inhibition confirmation – biochemical, C. elegans, fluorescence polarization, dose retest (AID 449745)
Details: Mex-5 / TCR-2 RNA binding, at 38 µM (top of the series)

Compound | activity change, negative = inhibition [%]
Oc1ccc(/C=N/Nc2ccc(Cl)nn2)c(O)c1O | -31.5
Cc1ccccc1S(=O)(=O)NNC(=O)C(=O)NNc1ccccn1 | -54.1
CN(C)c1ccc(/C=C(\C#N)C(=O)c2ccccc2)cc1 | -4.28
Oc1ccc(/C=N/Nc2ncnc3nc[nH]c23)cc1 | -11.4
CCOc1ccc(N=Nc2c(=O)[nH]n3c(=O)c4c([nH]c23)CCCC4)cc1 | -42.5
Nc1ccc(S(=O)(=O)NNC(=O)C(=O)NNc2ccccn2)cc1 | -57.6
